The assay addresses 3xFLAG-UFM1 (ubiquitin-fold modifier 1, endogenously tagged) (human) (UniProt P61960). In words: affinity purification with mass spectrometry; anti-FLAG M2 (or IgG control) on protein G Dynabeads; ribosomal pellets (25% sucrose cushion) of HCT116 3xFLAG-UFM1 cells, untreated or 200 nM anisomycin 1 h; digitonin buffer, 4 °C, 2 h; on-bead trypsin digest, LC-MS/MS.

Results are given in words; binding and its absence hold for the method and conditions named. Binding seen in cells or lysates may run through a third protein. These calls come from enrichment with a bait or labelling near it, and not all partners need be listed.

B1: NEMF (protein, UniProt O60524 1-1076)
chain: MKSRFSTIDLRAVLAELNASLLGMRVNNVYDVDNKTYLIRLQKPDFKATLLLESGIRIHTTEFEWPKNMMPSSFAMKCRKHLKSRRLVSAKQLGVDRIVDFQFGSDEAAYHLIIELYDRGNIVLTDYEYVILNILRFRTDEADDVKFAVRERYPLDHARAAEPLLTLERLTEIVASAPKGELLKRVLNPLLPYGPALIEHCLLENGFSGNVKVDEKLETKDIEKVLVSLQKAEDYMKTTSNFSGKGYIIQKREIKPSLEADKPVEDILTYEEFHPFLFSQHSQCPYIEFESFDKAVDEFYSKIEGQKIDLKALQQEKQALKKLDNVRKDHENRLEALQQAQEIDKLKGELIEMNLQIVDRAIQVVRSALANQIDWTEIGLIVKEAQAQGDPVASAIKELKLQTNHVTMLLRNPYLLSEEEDDDVDGDVNVEKNETEPPKGKKKKQKNKQLQKPQKNKPLLVDVDLSLSAYANAKKYYDHKRYAAKKTQKTVEAAEKAFKSAEKKTKQTLKEVQTVTSIQKARKVYWFEKFLWFISSENYLIIGGRDQQQNEIIVKRYLTPGDIYVHADLHGATSCVIKNPTGEPIPPRTLTEAGTMALCYSAAWDARVITSAWWVYHHQVSKTAPTGEYLTTGSFMIRGKKNFLPPSYLMMGFSFLFKVDESCVWRHQGERKVRVQDEDMETLASCTSELISEEMEQLDGGDTSSDEDKEEHETPVEVELMTQVDQEDITLQSGRDELNEELIQEESSEDEGEYEEVRKDQDSVGEMKDEGEETLNYPDTTIDLSHLQPQRSIQKLASKEESSNSSDSKSQSRRHLSAKERREMKKKKLPSDSGDLEALEGKDKEKESTVHIETHQNTSKNVAAVQPMKRGQKSKMKKMKEKYKDQDEEDRELIMKLLGSAGSNKEEKGKKGKKGKTKDEPVKKQPQKPRGGQRVSDNIKKETPFLEVITHELQDFAVDDPHDDKEEQDLDQQGNEENLFDSLTGQPHPEDVLLFAIPICAPYTTMTNYKYKVKLTPGVQKKGKAAKTALNSFMHSKEATAREKDLFRSVKDTDLSRNIPGKVKVSAPNLLNVKRK
Regarding B1, the binding entry is on record as “binds”.
